The data set can be described thus: general procedure: Fmoc solid-phase peptide synthesis; pre-loaded resins (H-Pro-2-chlorotrityl resin; Fmoc-Gly-Wang resin converted to isocyanide resin); HATU/HOAt/NMM. The note with it: late stage modification step, formate salt.

Some results are limits rather than exact numbers.

Take cemadotin: the step yield amounted to 46% isolated yield. For the same substance, the “final HPLC purity” value (analytical RP-HPLC) is above 95%.

(Values after paper PMC12503912 (Chemmedchem, 2025).)
